Assay results from publication doi:10.1101/2023.07.25.550453 (bioRxiv, 2023).
Substitutions are numbered along the chain they refer to. Results are given in words; binding and its absence hold for the method and conditions named. In cells and extracts the contact can be indirect. Some binding calls cover weakened binding; strength is not graded here. Where a sequence is shown, tags or fusion partners need not be part of it.

Assays:
[1] = target: T1, MYC-ZC3H18-ARMmut (mouse) (mouse) (UniProt Q0P678); assay: co-IP
T1 sequence: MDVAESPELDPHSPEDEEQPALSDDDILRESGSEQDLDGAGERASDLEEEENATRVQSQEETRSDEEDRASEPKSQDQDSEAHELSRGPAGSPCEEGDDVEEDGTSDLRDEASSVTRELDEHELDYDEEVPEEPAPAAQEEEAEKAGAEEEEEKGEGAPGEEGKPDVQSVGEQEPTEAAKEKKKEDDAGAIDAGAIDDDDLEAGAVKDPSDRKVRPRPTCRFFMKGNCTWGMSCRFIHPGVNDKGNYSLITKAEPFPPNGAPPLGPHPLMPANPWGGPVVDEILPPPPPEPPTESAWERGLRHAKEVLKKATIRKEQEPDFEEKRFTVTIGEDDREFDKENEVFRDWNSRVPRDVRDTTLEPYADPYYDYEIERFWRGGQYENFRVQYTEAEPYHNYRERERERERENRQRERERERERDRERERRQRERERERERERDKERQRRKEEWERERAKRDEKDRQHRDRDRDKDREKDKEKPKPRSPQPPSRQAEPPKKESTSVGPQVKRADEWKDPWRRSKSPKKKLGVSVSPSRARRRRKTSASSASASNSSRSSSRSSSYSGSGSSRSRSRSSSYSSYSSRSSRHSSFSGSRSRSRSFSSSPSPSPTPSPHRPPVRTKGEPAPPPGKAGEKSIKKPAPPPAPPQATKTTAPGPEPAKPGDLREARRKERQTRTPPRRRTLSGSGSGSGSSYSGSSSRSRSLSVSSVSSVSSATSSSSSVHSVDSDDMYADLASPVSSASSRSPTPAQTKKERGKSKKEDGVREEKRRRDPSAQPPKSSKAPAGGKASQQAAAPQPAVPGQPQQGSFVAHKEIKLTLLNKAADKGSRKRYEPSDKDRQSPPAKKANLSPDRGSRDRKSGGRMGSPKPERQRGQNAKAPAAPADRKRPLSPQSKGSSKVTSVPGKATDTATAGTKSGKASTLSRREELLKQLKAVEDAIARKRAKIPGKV

[2] = target: T2, MYC-ZC3H18-WT (mouse) (mouse) (UniProt Q0P678); assay: co-IP
T2 sequence: T1 sequence with A188D, A190E, A193D, A195E, A203E, A205E

B1: ZCCHC8 (mouse, endogenous) (protein, UniProt Q9CYA6 1-709)
chain: MAAGVDFGDLELFEAFDPPEESTPKPVHTRFKDDEEEEDDDDDENGVGDAELQEQLRRCEATIEQLRAENQELKRKLNILTRPSGILVSNTKIDGPLLQILFMNNAISKQYHQEIEEFVSNLVKRFEEQQKNDVEKTSFSLLPQPSSVMLEEDHKVEESCAVKNNKEAFSVVGSVLYFTNFCLDKLGQPLLNENPQLTEGWEIPKYQQVFSHIVPLEGQEMQVKAKRPKPHCFNCGSEEHQMKECPMPRNAARISEKRKEYMDACGEASGQSFQQRYHAEEVEERFGRFKPGVISEELQDALGVTDKSLPPFIYRMRQLGYPPGWLKEAELENSGLALYDGNDDADGETETGEIQNKNVTYDLSKLVNYPGFNISTPRGIPDEWRMFGSIPMQACQQKDVFASYLNSNIQSPSMRSSGKRSSSQSSPNSPKKQRKEGSAAASPADMELDSDVEIPPGSQSSKAFQFQPPLPPGTPPPLPQGTPPPLFTPPLPKGTPPLTPSDSPQARPAASAMDEDALTLEELEEQQRQIWAALQQAEGGNGDSDVPGDTPLTGNSVASSPCPNEFDLPVPEGKALEKPVLAEPQEPAASVDTAGPEPSCSPAAGAAVLSQREEEAAAEGGPGDALLDNGGVLNMNMSNGSNQQPIHPDSRPPMAPKTHSPVPDMSKFATGITPFEFENMAESTGMYLRIRNLLKNSPRNQQKNKKTCE
- binding [1]: binds
- binding [2]: binds
